# Experimental data: PubChem BioAssay AID1053208 (Peter MacCallum Cancer Centre, 2014)
# Purpose: 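Synthetic lethal interactions between gene loss and doxorubicin in osteosarcoma cells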 (primary screen)
# Cell system: mouse osteosarcoma cells, early-passage culture from an engineered mouse model of fibroblastic bone tumour
# Reagents: siRNA pool against mouse genes, 40 nM
# Timing: about 120 h (48 h before drug, then 72 h with drug)
# Conditions: doxorubicin 100 nM for 72 h, roughly 30-40% inhibitory dose
# Read-out: 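Viability read as ATP luminescence after 72 h of 100 nM doxorubicin or none, duplicate wells averaged, scaled to non-targeting siRNA, then expressed as robust z-scores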
# Scale: viability z-score with doxorubicin: higher = more viable cells under doxorubicin; viability z-score without drug: higher = more viable cells with knock-down alone
# Call rule: 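Called active if knock-down leaves viability unchanged without drug (z within -2 to 2) but lowers it with doxorubicin (z at or under -2)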
# Here is one part, drawn at random, of about 17,000 reagents. 788 of all reagents (4.7%) count as active. 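Calls rest on z-score classes alone; an extra cut-off of viability at most 70% of control was not applied to them.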 Further read-outs or replicates are left out here.
gene,combined z-score class,viability z-score with doxorubicin,viability z-score without drug,outcome
Wdr35 (WD repeat domain 35),no change with or without drug,-0.11,0.17,inactive
"Sidt2 (SID1 transmembrane family, member 2)",no change with or without drug,-0.56,0.51,inactive
Cuedc2 (CUE domain containing 2),no change with or without drug,0.22,-0.51,inactive
"Bora (bora, aurora kinase A activator)",low cell count with doxorubicin only,-2.02,-1.85,active
Or8g20 (olfactory receptor family 8 subfamily G member 20),no change with or without drug,-0.45,-1.01,inactive
Or51a10 (olfactory receptor family 51 subfamily A member 10),no change with or without drug,0.22,1.18,inactive
Nkx3-1 (NK3 homeobox 1),no change with or without drug,1.57,-0.51,inactive
Mrps24 (mitochondrial ribosomal protein S24),low cell count with and without drug,-3.37,-2.87,inactive
Or8b1c (olfactory receptor family 8 subfamily B member 1C),no change with or without drug,-0.22,1.01,inactive
Siah2 (siah E3 ubiquitin protein ligase 2),no change with or without drug,-1.12,-1.18,inactive
"Crp (C-reactive protein, pentraxin-related)",no change with or without drug,0.34,0,inactive
Or2aj5 (olfactory receptor family 2 subfamily AJ member 5),no change with or without drug,-0.79,-0.51,inactive
Elavl1 (ELAV like RNA binding protein 1),no change with or without drug,0.45,0.84,inactive
Ticrr (TOPBP1-interacting checkpoint and replication regulator),low cell count with and without drug,-3.15,-2.53,inactive
Cxadr (coxsackie virus and adenovirus receptor),no change with or without drug,1.12,0.51,inactive
Selenok (selenoprotein K),no change with or without drug,0,0.17,inactive
Emc2 (ER membrane protein complex subunit 2),no change with or without drug,-1.12,0.67,inactive
Ppp3r2,no change with or without drug,1.8,0.17,inactive
Pptc7 (PTC7 protein phosphatase homolog),no change with or without drug,-0.67,-1.52,inactive
Lce1i (late cornified envelope 1I),high cell count with doxorubicin only,2.47,0.67,inactive
Chml (choroideremia-like),no change with or without drug,-0.34,1.01,inactive
"Clec3b (C-type lectin domain family 3, member b)",no change with or without drug,-1.12,1.18,inactive
"Ptpn3 (protein tyrosine phosphatase, non-receptor type 3)",no change with or without drug,1.01,0.17,inactive
Or4c35 (olfactory receptor family 4 subfamily C member 35),no change with or without drug,0.9,-0.51,inactive
Taok1 (TAO kinase 1),no change with or without drug,-0.22,1.18,inactive
"Itpkb (inositol 1,4,5-trisphosphate 3-kinase B)",no change with or without drug,-1.01,-1.01,inactive
Bnip2 (BCL2/adenovirus E1B interacting protein 2),no change with or without drug,0.67,1.18,inactive
Sav1 (salvador family WW domain containing 1),no change with or without drug,1.12,-0.51,inactive
Ctsl (cathepsin L),no change with or without drug,0.45,0.51,inactive
Dis3l (DIS3 like exosome 3'-5' exoribonuclease),no change with or without drug,-0.22,-1.01,inactive
Acy3 (aminoacylase 3),low cell count with doxorubicin only,-2.25,-1.85,active
Phxr2 (per-hexamer repeat gene 2),no change with or without drug,0.56,0.34,inactive
Cyfip2 (cytoplasmic FMR1 interacting protein 2),no change with or without drug,0.34,-0.51,inactive
Adam19 (ADAM metallopeptidase domain 19),no change with or without drug,-0.22,0.51,inactive
Pld1 (phospholipase D1),no change with or without drug,0.22,0,inactive
Csgalnact2 (chondroitin sulfate N-acetylgalactosaminyltransferase 2),high cell count with doxorubicin only,2.02,1.69,inactive
Zfp143 (zinc finger protein 143),no change with or without drug,0.22,1.01,inactive
Taf6 (TATA-box binding protein associated factor 6),no change with or without drug,-0.56,-1.35,inactive
Nabp1 (nucleic acid binding protein 1),no change with or without drug,-0.79,-0.84,inactive
Abcg2,no change with or without drug,-0.45,0.51,inactive
Etd (embryonic testis differentiation),no change with or without drug,0.34,0.51,inactive
Ppid (peptidylprolyl isomerase D (cyclophilin D)),no change with or without drug,-0.22,-0.51,inactive
Or12k7 (olfactory receptor family 12 subfamily K member 7),no change with or without drug,0.22,0.17,inactive
2310066E14RIK,low cell count with and without drug,-3.48,-2.53,inactive
Smg9 (SMG9 nonsense mediated mRNA decay factor),no change with or without drug,-0.9,-1.18,inactive
Usf1 (upstream transcription factor 1),no change with or without drug,0.22,0.84,inactive
"Raver2 (ribonucleoprotein, PTB-binding 2)",no change with or without drug,-0.11,-0.17,inactive
"Gjd4 (gap junction protein, delta 4)",no change with or without drug,-0.67,-0.51,inactive
Rnf112 (ring finger protein 112),no change with or without drug,-1.12,-0.51,inactive
Dolpp1 (dolichyl pyrophosphate phosphatase 1),no change with or without drug,0.11,1.01,inactive

Sorted by “viability z-score with doxorubicin” (low to high): 3 of the entries above
gene,combined z-score class,viability z-score with doxorubicin,viability z-score without drug,outcome
Nabp1 (nucleic acid binding protein 1),no change with or without drug,-0.79,-0.84,inactive
Taf6 (TATA-box binding protein associated factor 6),no change with or without drug,-0.56,-1.35,inactive
Abcg2,no change with or without drug,-0.45,0.51,inactive
